Source: patent US20140193439A1
These are yes or no findings as the source states them, for the method shown. Binding seen in cells or lysates may run through a third protein. Some entries that bind do so weakly or less than the wild type. Values belong to the molecule of their own block, whether it stands above or below them.

Protein sequences, listed by entry. Tags and fused reporters are not part of them.
UniProt Q13261: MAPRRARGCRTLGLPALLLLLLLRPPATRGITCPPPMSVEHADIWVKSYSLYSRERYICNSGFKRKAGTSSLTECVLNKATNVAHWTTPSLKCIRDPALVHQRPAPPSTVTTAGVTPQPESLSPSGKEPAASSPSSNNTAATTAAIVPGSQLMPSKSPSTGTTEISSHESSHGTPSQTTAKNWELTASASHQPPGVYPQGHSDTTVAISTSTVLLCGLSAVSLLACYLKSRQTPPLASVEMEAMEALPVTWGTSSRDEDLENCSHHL

Experiments:
murine IL-15 (mouse) = target: T1, murine IL-15 (mouse) (UniProt P48346); assay: co-immunoprecipitation with anti-mouse IL-15 antibody (FIG. 7A)
T1 sequence (looked up): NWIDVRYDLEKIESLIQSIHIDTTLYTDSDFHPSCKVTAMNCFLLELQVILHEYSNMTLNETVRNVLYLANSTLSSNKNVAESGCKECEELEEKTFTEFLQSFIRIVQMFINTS

[1] = target: in vitro translated [35S]-methionine labeled human IL-15Rα protein (from pVAX1-IL-15Rα) (human) (UniProt Q13261); assay: as above

binding (murine IL-15 (mouse)): binds
Molecule: in vitro translated [35S]-methionine labeled human IL-15Rα protein (from pVAX1-IL-15Rα) (from UniProt Q13261 1-267) (receptor)

binding [1]: binds
B1: murine IL-15 (ligand, mouse, UniProt P48346 49-162, looked up)
chain: T1 sequence (looked up)
